Measured values from the supplement of paper PMC6411743.
± gives the standard deviation of the averaged measurements. Some of the results follow.

Protein sequences, listed by entry. Tags and fused reporters are not part of them. Lines headed by an entry give the natural chain unless they say otherwise; changes in a name come on top.
UniProt P01848, whole entry, looked up: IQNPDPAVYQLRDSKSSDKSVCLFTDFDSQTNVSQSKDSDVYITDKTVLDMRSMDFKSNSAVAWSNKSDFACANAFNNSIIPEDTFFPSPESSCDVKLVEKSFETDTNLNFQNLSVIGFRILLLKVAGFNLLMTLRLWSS
UniProt Q8WWP7: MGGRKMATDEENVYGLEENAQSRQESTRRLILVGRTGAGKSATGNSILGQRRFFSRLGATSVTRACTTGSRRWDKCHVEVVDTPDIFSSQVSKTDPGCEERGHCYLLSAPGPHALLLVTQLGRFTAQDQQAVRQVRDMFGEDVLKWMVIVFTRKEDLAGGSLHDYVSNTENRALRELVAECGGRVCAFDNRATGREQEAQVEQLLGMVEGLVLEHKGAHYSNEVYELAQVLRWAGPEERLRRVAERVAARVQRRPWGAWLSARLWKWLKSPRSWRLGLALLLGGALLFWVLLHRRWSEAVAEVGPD
UniProt Q9H4M9: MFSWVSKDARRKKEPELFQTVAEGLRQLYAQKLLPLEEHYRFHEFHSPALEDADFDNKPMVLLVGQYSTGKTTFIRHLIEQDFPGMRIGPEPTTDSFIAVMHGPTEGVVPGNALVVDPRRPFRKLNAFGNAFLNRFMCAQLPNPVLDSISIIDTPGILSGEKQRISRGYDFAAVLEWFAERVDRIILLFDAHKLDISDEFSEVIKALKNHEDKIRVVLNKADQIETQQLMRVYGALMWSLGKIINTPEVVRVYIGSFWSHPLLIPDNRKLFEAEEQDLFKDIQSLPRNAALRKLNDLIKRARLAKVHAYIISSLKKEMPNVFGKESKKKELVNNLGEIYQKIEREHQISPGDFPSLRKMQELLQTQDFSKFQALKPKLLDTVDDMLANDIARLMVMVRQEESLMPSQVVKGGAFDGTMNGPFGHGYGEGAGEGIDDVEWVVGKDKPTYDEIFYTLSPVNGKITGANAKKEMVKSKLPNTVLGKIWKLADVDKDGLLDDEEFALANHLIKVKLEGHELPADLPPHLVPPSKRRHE
UniProt P07203, whole entry: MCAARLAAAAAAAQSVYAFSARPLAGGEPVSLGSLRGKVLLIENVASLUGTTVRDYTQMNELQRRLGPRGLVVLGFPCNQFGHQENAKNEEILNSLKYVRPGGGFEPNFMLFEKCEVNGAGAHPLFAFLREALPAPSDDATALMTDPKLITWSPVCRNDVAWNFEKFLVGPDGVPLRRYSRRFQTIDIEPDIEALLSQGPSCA
UniProt Q9Y371: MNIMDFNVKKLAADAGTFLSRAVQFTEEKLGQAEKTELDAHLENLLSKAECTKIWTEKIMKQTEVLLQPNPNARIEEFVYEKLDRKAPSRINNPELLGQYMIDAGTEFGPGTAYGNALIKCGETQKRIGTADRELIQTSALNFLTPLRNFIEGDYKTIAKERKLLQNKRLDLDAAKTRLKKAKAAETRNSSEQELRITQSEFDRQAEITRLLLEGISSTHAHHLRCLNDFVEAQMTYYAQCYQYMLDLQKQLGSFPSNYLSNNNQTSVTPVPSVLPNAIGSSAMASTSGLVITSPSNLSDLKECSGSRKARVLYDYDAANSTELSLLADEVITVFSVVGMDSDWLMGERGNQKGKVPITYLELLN
UniProt Q13043: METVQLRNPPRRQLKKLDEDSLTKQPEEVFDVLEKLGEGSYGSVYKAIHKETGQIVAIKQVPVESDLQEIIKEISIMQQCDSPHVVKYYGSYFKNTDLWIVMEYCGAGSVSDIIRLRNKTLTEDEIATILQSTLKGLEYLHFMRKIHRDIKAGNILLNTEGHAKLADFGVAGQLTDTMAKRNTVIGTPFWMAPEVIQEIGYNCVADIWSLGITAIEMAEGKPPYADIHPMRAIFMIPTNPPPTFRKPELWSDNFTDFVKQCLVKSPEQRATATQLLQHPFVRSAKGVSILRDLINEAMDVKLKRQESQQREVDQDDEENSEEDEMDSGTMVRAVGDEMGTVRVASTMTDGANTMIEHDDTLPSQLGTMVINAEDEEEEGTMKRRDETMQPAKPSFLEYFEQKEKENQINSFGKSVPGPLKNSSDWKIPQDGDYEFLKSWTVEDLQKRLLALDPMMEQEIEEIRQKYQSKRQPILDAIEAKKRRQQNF
UniProt Q96FV9: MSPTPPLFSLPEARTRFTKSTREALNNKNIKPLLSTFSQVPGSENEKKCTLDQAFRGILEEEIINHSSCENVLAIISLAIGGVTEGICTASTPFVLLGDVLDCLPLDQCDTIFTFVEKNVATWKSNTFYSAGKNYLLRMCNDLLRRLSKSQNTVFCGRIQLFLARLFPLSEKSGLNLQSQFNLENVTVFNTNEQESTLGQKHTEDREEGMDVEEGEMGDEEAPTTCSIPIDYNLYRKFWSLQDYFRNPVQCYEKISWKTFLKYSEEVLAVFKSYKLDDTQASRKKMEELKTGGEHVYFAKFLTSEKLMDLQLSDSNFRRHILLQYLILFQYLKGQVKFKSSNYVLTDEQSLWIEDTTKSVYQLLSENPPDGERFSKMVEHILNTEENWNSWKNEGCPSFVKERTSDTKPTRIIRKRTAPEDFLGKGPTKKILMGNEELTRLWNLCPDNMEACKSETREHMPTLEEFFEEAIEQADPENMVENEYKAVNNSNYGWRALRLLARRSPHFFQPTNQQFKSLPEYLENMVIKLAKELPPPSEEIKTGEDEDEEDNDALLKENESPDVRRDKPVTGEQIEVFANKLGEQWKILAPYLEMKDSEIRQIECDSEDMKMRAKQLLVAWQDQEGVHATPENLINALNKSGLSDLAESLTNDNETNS
UniProt Q70IA6: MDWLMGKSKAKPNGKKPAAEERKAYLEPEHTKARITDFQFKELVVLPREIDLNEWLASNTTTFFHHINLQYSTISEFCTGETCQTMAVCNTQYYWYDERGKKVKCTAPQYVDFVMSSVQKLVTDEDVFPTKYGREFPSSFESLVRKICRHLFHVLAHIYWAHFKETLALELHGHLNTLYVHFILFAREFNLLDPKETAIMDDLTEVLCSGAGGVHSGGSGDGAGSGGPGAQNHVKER
UniProt P53814: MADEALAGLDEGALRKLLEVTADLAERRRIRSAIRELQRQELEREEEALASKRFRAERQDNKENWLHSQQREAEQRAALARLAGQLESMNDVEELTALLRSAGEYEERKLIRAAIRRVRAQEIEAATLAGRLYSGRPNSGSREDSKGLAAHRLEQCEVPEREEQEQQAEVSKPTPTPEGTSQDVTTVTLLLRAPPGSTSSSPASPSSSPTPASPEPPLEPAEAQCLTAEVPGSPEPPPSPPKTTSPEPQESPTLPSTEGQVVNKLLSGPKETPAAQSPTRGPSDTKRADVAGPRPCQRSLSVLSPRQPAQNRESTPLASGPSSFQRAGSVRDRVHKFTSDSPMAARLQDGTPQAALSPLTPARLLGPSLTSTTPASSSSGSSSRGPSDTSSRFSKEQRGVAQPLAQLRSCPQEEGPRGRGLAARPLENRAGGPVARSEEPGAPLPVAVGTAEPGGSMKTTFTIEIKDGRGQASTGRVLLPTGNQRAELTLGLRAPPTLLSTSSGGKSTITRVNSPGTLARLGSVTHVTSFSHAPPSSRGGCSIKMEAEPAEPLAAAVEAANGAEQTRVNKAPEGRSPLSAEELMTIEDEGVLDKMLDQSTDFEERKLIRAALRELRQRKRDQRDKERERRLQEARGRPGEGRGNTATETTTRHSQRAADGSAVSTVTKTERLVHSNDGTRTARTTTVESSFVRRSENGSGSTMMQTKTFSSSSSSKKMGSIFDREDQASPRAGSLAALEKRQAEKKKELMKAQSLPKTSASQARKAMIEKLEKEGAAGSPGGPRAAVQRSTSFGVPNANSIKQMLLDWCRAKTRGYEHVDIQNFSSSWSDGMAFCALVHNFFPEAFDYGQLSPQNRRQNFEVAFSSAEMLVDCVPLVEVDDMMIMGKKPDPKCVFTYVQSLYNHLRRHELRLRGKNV
UniProt Q9H0U3: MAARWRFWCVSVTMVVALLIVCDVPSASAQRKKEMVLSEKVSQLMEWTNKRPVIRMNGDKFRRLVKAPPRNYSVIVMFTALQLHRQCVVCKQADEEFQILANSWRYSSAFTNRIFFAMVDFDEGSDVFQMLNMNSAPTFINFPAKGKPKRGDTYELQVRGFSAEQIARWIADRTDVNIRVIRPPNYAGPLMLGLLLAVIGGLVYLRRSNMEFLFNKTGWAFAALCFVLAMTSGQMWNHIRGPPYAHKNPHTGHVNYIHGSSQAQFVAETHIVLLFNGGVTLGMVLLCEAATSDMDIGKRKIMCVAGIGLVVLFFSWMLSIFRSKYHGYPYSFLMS
UniProt A8CG34, whole entry: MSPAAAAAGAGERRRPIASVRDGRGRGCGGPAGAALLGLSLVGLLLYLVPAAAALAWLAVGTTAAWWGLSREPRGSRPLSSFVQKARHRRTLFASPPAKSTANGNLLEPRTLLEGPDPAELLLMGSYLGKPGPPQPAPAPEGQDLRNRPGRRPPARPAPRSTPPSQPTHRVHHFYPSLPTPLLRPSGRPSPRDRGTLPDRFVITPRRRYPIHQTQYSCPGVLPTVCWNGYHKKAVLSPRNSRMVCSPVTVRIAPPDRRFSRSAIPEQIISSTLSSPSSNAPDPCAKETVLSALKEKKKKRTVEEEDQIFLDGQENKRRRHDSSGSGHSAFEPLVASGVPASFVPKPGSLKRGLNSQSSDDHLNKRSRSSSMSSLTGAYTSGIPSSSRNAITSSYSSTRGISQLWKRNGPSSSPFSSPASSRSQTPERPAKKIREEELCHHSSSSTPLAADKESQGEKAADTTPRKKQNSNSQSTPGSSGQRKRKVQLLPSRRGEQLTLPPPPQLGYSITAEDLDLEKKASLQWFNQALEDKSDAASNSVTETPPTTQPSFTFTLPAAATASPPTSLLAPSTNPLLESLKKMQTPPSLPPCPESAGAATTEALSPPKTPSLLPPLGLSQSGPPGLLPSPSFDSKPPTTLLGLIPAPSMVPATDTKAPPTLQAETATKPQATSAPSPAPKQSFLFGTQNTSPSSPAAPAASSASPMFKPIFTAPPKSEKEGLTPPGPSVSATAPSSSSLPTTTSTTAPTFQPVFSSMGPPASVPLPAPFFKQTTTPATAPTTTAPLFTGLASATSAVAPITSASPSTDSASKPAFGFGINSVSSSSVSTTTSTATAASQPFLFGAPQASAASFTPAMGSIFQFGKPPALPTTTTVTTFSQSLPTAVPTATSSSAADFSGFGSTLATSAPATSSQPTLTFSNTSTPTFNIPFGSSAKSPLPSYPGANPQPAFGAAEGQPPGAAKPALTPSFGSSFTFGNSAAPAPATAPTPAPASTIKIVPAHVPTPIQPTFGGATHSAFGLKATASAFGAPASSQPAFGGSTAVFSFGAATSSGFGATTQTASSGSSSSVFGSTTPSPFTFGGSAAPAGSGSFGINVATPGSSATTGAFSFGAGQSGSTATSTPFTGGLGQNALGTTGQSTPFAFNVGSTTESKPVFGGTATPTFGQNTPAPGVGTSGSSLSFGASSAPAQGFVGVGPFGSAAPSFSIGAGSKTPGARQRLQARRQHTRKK
UniProt Q8WYA6: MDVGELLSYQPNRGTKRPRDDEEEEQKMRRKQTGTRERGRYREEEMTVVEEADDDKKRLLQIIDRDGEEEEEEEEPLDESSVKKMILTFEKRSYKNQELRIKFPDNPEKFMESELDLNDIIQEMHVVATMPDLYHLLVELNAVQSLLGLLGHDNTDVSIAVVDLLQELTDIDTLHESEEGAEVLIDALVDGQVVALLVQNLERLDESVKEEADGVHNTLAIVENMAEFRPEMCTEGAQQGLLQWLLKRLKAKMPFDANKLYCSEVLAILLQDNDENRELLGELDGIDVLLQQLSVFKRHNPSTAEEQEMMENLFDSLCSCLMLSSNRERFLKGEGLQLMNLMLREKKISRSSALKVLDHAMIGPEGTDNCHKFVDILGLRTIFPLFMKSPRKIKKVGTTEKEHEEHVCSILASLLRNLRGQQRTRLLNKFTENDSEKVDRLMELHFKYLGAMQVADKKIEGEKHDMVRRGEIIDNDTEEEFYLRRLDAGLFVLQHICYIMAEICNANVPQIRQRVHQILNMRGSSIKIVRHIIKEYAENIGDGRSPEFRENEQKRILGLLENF
UniProt Q92504: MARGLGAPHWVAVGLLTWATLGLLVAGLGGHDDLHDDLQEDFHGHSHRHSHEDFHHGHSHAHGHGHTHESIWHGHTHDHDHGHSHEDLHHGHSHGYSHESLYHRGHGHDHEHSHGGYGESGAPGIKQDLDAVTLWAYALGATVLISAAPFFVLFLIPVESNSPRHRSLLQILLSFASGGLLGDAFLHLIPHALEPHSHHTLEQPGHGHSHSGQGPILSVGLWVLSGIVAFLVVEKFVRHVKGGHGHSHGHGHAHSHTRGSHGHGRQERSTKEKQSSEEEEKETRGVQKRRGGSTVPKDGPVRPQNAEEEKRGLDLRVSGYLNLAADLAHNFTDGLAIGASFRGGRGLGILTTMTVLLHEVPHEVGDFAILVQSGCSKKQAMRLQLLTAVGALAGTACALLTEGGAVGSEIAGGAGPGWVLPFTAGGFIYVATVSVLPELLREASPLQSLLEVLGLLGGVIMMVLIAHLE

Compound: Nc1nc2c(ncn2[C@@H]2O[C@H](COP(=O)(O)OP(=O)(O)OP(=O)(O)O)[C@@H](O)[C@H]2O)c(=O)[nH]1 [guanosine triphosphate]
Assay: NP40-soluble protein abundance relative to vehicle (solubility fold change) (ratio); higher = more soluble protein in presence of GTP
Settings: concentration: 0.1mM
In short: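 Values are fold changes against the detergent-processed vehicle, based on vsn-normalised intensities. Jurkat crude lysate was treated at eight concentrations from 0.1 to 10 mM (10 min at room temperature, then 3 min at 37 °C), solubilised with 0.8% NP40 and benzonase, ultracentrifuged and analysed by TMT-labelled LC-MS/MS over three independent experiments.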

Target	NP40-soluble protein abundance
A0A087WWC6|P01848 and related entries (UniProt Q6P4I7+P01848)	0.933 ± 0.081
A0A087WTJ2|Q8WWP7 (UniProt Q8WWP7)	1.03 ± 0.021
A0A024R571|Q9H4M9 (UniProt Q9H4M9)	0.995 ± 0.046
A0A087WWF6|F8W8R3 and related entries (UniProt P49005)	1 ± 0.043
A0A087WUQ6|P07203 (UniProt P07203)	0.93 ± 0.087
A0A087WW40|Q9Y371 and related entries (UniProt Q9Y371)	0.937 ± 0.098
A0A087WV52|Q9NP92 (UniProt Q9NP92)	1.15 ± 0.15
A0A087WUK2|O14979-3|O14979 and related entries (UniProt O14979)	0.947 ± 0.074
A0A087WVN8|Q13043 (UniProt Q13043)	0.95 ± 0.053
A0A087WWS1|Q96FV9 (UniProt Q96FV9)	1.1 ± 0.016
A0A024R4E5 (UniProt Q00341)	0.973 ± 0.024
A0A087WVS8|Q70IA6 and related entries (UniProt Q70IA6)	1.08 ± 0.072
A0A087WTU9|A0A087WZY3|Q8TCU4 and related entries (UniProt Q8TCU4)	1.02 ± 0.14
A0A087WUD1|Q6DD87 (UniProt Q6DD87)	1.02 ± 0.039
A0A024RA52|P25787 (UniProt P25787)	1.04 ± 0.039
A0A087WVP4|A0A087X1R1|P53814 and related entries (UniProt P53814)	1.05 ± 0.19
A0A087WW84|E9PP15 and related entries (UniProt Q14114)	1.04 ± 0.057
A0A087WV73|P46087 and related entries (UniProt P46087)	0.994 ± 0.047

Target	NP40-soluble protein abundance
A0A024R644|O75503 (UniProt O75503)	0.927 ± 0.039
A0A087WU53|Q9H0U3 (UniProt Q9H0U3)	1 ± 0.06
A0A087WUD7|Q8WU76 and related entries (UniProt Q8WU76)	1.11 ± 0.17
A0A075B7C0|A0A0C4DGQ5|K7EIV0 and related entries (UniProt P04632)	0.946 ± 0.02
A0A087WTA1|A0A0A0MR20|E9PDN6 and related entries (UniProt Q9C0A0)	1.1 ± 0.18
A0A075B7F8|A8CG34 (UniProt A8CG34)	0.98 ± 0.0065
A0A075B716|H0YN88 and related entries (UniProt P08708)	0.994 ± 0.11
A0A087WW14|Q0VDG4 and related entries (UniProt Q0VDG4)	1.07 ± 0.07
A0A087WUB9|Q8WYA6 (UniProt Q8WYA6)	1.02 ± 0.014
A0A087WU02|F8VPA6 and related entries (UniProt Q96RQ1)	1.04 ± 0.096
A0A024RCR6|A0A0G2JK23|P46379 and related entries (UniProt P46379)	0.93 ± 0.085
A0A087WWP8|A0A0C4DGT8|Q5VWQ0 (UniProt Q5VWQ0)	1.06 ± 0.027
A0A087WVF7|Q9NZM3 and related entries (UniProt Q9NZM3)	0.972 ± 0.061
A0A087WWM0|O43617 and related entries (UniProt O43617)	0.927 ± 0.14
A0A075B6F9|M0R3B2 and related entries (UniProt Q9Y314)	0.979 ± 0.031
A0A024R216|Q9Y3E1 (UniProt Q9Y3E1)	0.932 ± 0.067
A0A087WTX2|Q92504 and related entries (UniProt Q92504)	0.973 ± 0.023
A0A087WUC6|E9PI68 and related entries (UniProt Q15005)	0.955 ± 0.026

Same assay, conditions: concentration: 0.5mM

Target	NP40-soluble protein abundance
A0A087WWC6|P01848 and related entries (UniProt Q6P4I7+P01848)	1.01 ± 0.14
A0A087WTJ2|Q8WWP7 (UniProt Q8WWP7)	1.01 ± 0.017
A0A024R571|Q9H4M9 (UniProt Q9H4M9)	0.994 ± 0.044
A0A087WWF6|F8W8R3 and related entries (UniProt P49005)	1.01 ± 0.025
A0A087WUQ6|P07203 (UniProt P07203)	0.88 ± 0.064
A0A087WW40|Q9Y371 and related entries (UniProt Q9Y371)	0.95 ± 0.09
A0A087WV52|Q9NP92 (UniProt Q9NP92)	1.32 ± 0.29
A0A087WUK2|O14979-3|O14979 and related entries (UniProt O14979)	0.983 ± 0.03
A0A087WVN8|Q13043 (UniProt Q13043)	0.953 ± 0.058
A0A087WWS1|Q96FV9 (UniProt Q96FV9)	1.24 ± 0.086
A0A024R4E5 (UniProt Q00341)	0.945 ± 0.0094
A0A087WVS8|Q70IA6 and related entries (UniProt Q70IA6)	1.04 ± 0.12
A0A087WTU9|A0A087WZY3|Q8TCU4 and related entries (UniProt Q8TCU4)	0.885 ± 0.064
A0A087WUD1|Q6DD87 (UniProt Q6DD87)	1.03 ± 0.043
A0A024RA52|P25787 (UniProt P25787)	0.99 ± 0.039
A0A087WVP4|A0A087X1R1|P53814 and related entries (UniProt P53814)	0.953 ± 0.084
A0A087WW84|E9PP15 and related entries (UniProt Q14114)	0.998 ± 0.046
A0A087WV73|P46087 and related entries (UniProt P46087)	1.02 ± 0.045

Target	NP40-soluble protein abundance
A0A024R644|O75503 (UniProt O75503)	0.93 ± 0.081
A0A087WU53|Q9H0U3 (UniProt Q9H0U3)	0.984 ± 0.048
A0A087WUD7|Q8WU76 and related entries (UniProt Q8WU76)	1.06 ± 0.17
A0A075B7C0|A0A0C4DGQ5|K7EIV0 and related entries (UniProt P04632)	0.932 ± 0.089
A0A087WTA1|A0A0A0MR20|E9PDN6 and related entries (UniProt Q9C0A0)	0.805 ± 0.085
A0A075B7F8|A8CG34 (UniProt A8CG34)	0.904 ± 0.092
A0A075B716|H0YN88 and related entries (UniProt P08708)	0.983 ± 0.12
A0A087WW14|Q0VDG4 and related entries (UniProt Q0VDG4)	1 ± 0.052
A0A087WUB9|Q8WYA6 (UniProt Q8WYA6)	0.978 ± 0.02
A0A087WU02|F8VPA6 and related entries (UniProt Q96RQ1)	1.02 ± 0.082
A0A024RCR6|A0A0G2JK23|P46379 and related entries (UniProt P46379)	0.951 ± 0.058
A0A087WWP8|A0A0C4DGT8|Q5VWQ0 (UniProt Q5VWQ0)	1.22 ± 0.017
A0A087WVF7|Q9NZM3 and related entries (UniProt Q9NZM3)	1.01 ± 0.03
A0A087WWM0|O43617 and related entries (UniProt O43617)	0.89 ± 0.11
A0A075B6F9|M0R3B2 and related entries (UniProt Q9Y314)	0.954 ± 0.029
A0A024R216|Q9Y3E1 (UniProt Q9Y3E1)	0.958 ± 0.1
A0A087WTX2|Q92504 and related entries (UniProt Q92504)	1.04 ± 0.059
A0A087WUC6|E9PI68 and related entries (UniProt Q15005)	0.955 ± 0.018
